These are yes or no findings as the source states them, for the method shown. Binding seen in cells or lysates may run through a third protein. Some binding calls cover weakened binding; strength is not graded here. Where a sequence is shown, tags or fusion partners need not be part of it.
Molecular target: GFP-KIAA1217 (human) (UniProt Q5T5P2)
Assay: co-IP

The chains behind the UniProt entries cited, without tags or fusion partners.
UniProt Q5T5P2: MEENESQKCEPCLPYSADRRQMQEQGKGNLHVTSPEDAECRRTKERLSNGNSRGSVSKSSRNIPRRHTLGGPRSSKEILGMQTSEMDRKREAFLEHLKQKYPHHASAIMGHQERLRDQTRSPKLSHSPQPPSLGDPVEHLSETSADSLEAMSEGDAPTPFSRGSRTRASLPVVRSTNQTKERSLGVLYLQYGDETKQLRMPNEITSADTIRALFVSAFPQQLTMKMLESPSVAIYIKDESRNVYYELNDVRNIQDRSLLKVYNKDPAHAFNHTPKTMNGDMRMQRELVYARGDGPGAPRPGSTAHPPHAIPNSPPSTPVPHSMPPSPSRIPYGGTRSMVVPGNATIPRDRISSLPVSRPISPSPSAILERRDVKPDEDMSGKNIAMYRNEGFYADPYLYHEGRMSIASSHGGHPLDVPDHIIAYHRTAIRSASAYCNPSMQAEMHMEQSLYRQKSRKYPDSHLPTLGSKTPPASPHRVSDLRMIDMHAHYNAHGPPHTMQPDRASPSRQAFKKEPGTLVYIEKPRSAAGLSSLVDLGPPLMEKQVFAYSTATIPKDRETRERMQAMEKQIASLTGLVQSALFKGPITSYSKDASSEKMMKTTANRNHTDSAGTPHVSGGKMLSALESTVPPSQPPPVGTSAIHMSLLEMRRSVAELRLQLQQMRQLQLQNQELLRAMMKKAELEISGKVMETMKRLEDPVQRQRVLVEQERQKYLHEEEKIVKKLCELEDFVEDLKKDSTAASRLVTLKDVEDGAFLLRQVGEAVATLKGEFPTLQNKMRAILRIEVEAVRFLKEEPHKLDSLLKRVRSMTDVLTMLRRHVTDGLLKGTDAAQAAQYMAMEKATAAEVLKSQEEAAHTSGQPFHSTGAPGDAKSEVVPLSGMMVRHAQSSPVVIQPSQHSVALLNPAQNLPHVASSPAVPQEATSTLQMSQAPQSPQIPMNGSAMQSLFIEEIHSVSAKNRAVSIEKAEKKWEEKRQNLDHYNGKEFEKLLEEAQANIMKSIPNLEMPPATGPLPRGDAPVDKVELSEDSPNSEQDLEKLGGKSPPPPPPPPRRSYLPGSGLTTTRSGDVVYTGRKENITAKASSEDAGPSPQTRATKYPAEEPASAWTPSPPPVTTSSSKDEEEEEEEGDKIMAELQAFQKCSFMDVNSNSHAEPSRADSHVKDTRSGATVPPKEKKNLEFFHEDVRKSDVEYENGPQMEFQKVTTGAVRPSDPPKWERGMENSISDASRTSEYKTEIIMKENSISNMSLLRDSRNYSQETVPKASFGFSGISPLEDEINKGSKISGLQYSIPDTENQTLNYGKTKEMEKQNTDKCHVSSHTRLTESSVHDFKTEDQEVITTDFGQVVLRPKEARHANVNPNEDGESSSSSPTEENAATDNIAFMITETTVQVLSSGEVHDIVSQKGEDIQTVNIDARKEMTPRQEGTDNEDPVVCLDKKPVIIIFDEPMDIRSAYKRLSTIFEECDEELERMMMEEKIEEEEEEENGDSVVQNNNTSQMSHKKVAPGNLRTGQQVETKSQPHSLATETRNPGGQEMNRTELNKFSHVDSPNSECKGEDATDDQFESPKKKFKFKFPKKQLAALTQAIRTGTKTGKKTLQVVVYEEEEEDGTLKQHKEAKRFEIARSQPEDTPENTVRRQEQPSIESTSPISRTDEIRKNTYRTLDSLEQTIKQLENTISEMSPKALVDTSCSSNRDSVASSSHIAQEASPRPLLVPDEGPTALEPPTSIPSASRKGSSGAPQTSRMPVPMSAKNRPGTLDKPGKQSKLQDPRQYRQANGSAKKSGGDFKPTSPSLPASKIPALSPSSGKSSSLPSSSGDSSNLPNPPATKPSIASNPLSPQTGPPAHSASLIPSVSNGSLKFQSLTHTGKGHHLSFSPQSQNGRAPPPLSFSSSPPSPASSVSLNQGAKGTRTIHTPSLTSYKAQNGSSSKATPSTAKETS

binding: binds
B1: p140Cap-Flag (protein, UniProt Q9C0H9 1-1183)
chain: MGNAPSQDPERSSPPMLSADDAEYPREYRTLGGGGGGGSGGRRFSNVGLVHTSERRHTVIAAQSLEALSGLQKADADRKRDAFMDHLKSKYPQHALALRGQQDRMREQPNYWSFKTRSSRHTQGAQPGLADQAAKLSYASAESLETMSEAELPLGFSRMNRFRQSLPLSRSASQTKLRSPGVLFLQFGEETRRVHITHEVSSLDTLHALIAHMFPQKLTMGMLKSPNTAILIKDEARNVFYELEDVRDIQDRSIIKIYRKEPLYAAFPGSHLTNGDLRREMVYASRESSPTRRLNNLSPAPHLASGSPPPGLPSGLPSGLQSGSPSRSRLSYAGGRPPSYAGSPVHHAAERLGGAPAAQGVSPSPSAILERRDVKPDEDLASKAGGMVLVKGEGLYADPYGLLHEGRLSLAAAAGDPFAYPGAGGLYKRGSVRSLSTYSAAALQSDLEDSLYKAAGGGGPLYGDGYGFRLPPSSPQKLADVAAPPGGPPPPHSPYSGPPSRGSPVRQSFRKDSGSSSVFAESPGGKTRSAGSASTAGAPPSELFPGPGERSLVGFGPPVPAKDTETRERMEAMEKQIASLTGLVQSALLRGSEPETPSEKIEGSNGAATPSAPCGSGGRSSGATPVSGPPPPSASSTPAGQPTAVSRLQMQLHLRGLQNSASDLRGQLQQLRKLQLQNQESVRALLKRTEAELSMRVSEAARRQEDPLQRQRTLVEEERLRYLNDEELITQQLNDLEKSVEKIQRDVSHNHRLVPGPELEEKALVLKQLGETLTELKAHFPGLQSKMRVVLRVEVEAVKFLKEEPQRLDGLLKRCRGVTDTLAQIRRQVDEGVWPPPNNLLSQSPKKVTAETDFNKSVDFEMPPPSPPLNLHELSGPAEGASLTPKGGNPTKGLDTPGKRSVDKAVSVEAAERDWEEKRAALTQYSAKDINRLLEETQAELLKAIPDLDCASKAHPGPAPTPDHKPPKAPHGQKAAPRTEPSGRRGSDELTVPRYRTEKPSKSPPPPPPRRSFPSSHGLTTTRTGEVVVTSKKDSAFIKKAESEELEVQKPQVKLRRAVSEVARPASTPPIMASAIKDEDDEDRIIAELESGGGSVPPMKVVTPGASRLKAAQGQAGSPDKSKHGKQRAEYMRIQAQQQATKPSKEMSGSNETSSPVSEKPSASRTSIPVLTSFGARNSSISF

Source: publication doi:10.1101/2025.10.30.685566
